PubChem BioAssay AID686943, Drosophila RNAi Screening Center, 2013

Purpose: 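Knockdowns that increase or decrease active ERK after insulin receptor stimulation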 (primary screen)
Cell system: Drosophila S2R+ haemocyte-like cells expressing YFP-tagged ERK (Rolled)
Reagent: long dsRNA against Drosophila genes
Conditions: insulin stimulation versus unstimulated cells; dose and duration not given
Detection: 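Per-plate z-scores of phospho-ERK immunostaining normalised to YFP-tagged ERK, measured with and without insulin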
Scale: replicate 1, z-score of dpERK with insulin and replicate 2, z-score of dpERK with insulin: higher = more active ERK per ERK-YFP after insulin
The deposit covers about 23,000 reagents; shown is a random part of those with a known target gene and a result. 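Extra replicates exist only for a retested subset of genes; insulin dose and duration not given; both raised and lowered dpERK matter.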 Not all columns of the deposit are shown. No sequences are given here. The record does not give: the amount of reagent, the time to read-out.

{"gene knocked down": "Rat1", "DRSC id": "DRSC02044", "replicate 1, z-score of dpERK with insulin": 0.79, "replicate 2, z-score of dpERK with insulin": -0.18}
{"gene knocked down": "RpL40", "DRSC id": "DRSC00782", "replicate 1, z-score of dpERK with insulin": -2.54, "replicate 2, z-score of dpERK with insulin": -2.32}
{"gene knocked down": "TppII", "DRSC id": "DRSC07565", "replicate 1, z-score of dpERK with insulin": -0.91, "replicate 2, z-score of dpERK with insulin": -0.38}
{"gene knocked down": "CG31689", "DRSC id": "DRSC00734", "replicate 1, z-score of dpERK with insulin": -0.56, "replicate 2, z-score of dpERK with insulin": 0.94}
{"gene knocked down": "CG3679", "DRSC id": "DRSC19346", "replicate 1, z-score of dpERK with insulin": -0.02, "replicate 2, z-score of dpERK with insulin": 0.35}
{"gene knocked down": "CG1835", "DRSC id": "DRSC20560", "replicate 1, z-score of dpERK with insulin": 0.24, "replicate 2, z-score of dpERK with insulin": -0.06}
{"gene knocked down": "NTPase", "DRSC id": "DRSC00761", "replicate 1, z-score of dpERK with insulin": -1.12, "replicate 2, z-score of dpERK with insulin": 0.09}
{"gene knocked down": "brn", "DRSC id": "DRSC18746", "replicate 1, z-score of dpERK with insulin": 0.34, "replicate 2, z-score of dpERK with insulin": 0.17}
{"gene knocked down": "CG5079", "DRSC id": "DRSC15713", "replicate 1, z-score of dpERK with insulin": -0.88, "replicate 2, z-score of dpERK with insulin": -2.27}
{"gene knocked down": "kibra", "DRSC id": "DRSC14533", "replicate 1, z-score of dpERK with insulin": 0.3, "replicate 2, z-score of dpERK with insulin": 0.6}
{"gene knocked down": "kibra", "DRSC id": "DRSC16257", "replicate 1, z-score of dpERK with insulin": -1.12, "replicate 2, z-score of dpERK with insulin": -4.15}
{"gene knocked down": "Cog8", "DRSC id": "DRSC02961", "replicate 1, z-score of dpERK with insulin": 1.1, "replicate 2, z-score of dpERK with insulin": 0.19}
{"gene knocked down": "Karybeta3", "DRSC id": "DRSC12355", "replicate 1, z-score of dpERK with insulin": -0.13, "replicate 2, z-score of dpERK with insulin": -0.17}
{"gene knocked down": "Paris", "DRSC id": "DRSC00451", "replicate 1, z-score of dpERK with insulin": 0.66, "replicate 2, z-score of dpERK with insulin": -0.43}

Ordered by “replicate 1, z-score of dpERK with insulin” (highest first): some entries from above
{"gene knocked down": "CG1835", "DRSC id": "DRSC20560", "replicate 1, z-score of dpERK with insulin": 0.24, "replicate 2, z-score of dpERK with insulin": -0.06}
{"gene knocked down": "CG3679", "DRSC id": "DRSC19346", "replicate 1, z-score of dpERK with insulin": -0.02, "replicate 2, z-score of dpERK with insulin": 0.35}
{"gene knocked down": "NTPase", "DRSC id": "DRSC00761", "replicate 1, z-score of dpERK with insulin": -1.12, "replicate 2, z-score of dpERK with insulin": 0.09}

Further reagents:
{"gene knocked down": "schlank", "DRSC id": "DRSC18102", "replicate 1, z-score of dpERK with insulin": 1.14, "replicate 2, z-score of dpERK with insulin": 0.75}
{"gene knocked down": "schlank", "DRSC id": "DRSC18313", "replicate 1, z-score of dpERK with insulin": 0.79, "replicate 2, z-score of dpERK with insulin": 1.72}
{"gene knocked down": "mRpS18B", "DRSC id": "DRSC02107", "replicate 1, z-score of dpERK with insulin": 0.24, "replicate 2, z-score of dpERK with insulin": 0.1}
{"gene knocked down": "CG11902", "DRSC id": "DRSC14434", "replicate 1, z-score of dpERK with insulin": 0.12, "replicate 2, z-score of dpERK with insulin": 0.34}
{"gene knocked down": "Mrgn1", "DRSC id": "DRSC20223", "replicate 1, z-score of dpERK with insulin": -0.99, "replicate 2, z-score of dpERK with insulin": -0.7}
{"gene knocked down": "CG1924", "DRSC id": "DRSC19823", "replicate 1, z-score of dpERK with insulin": 0.56, "replicate 2, z-score of dpERK with insulin": 0.87}
{"gene knocked down": "up", "DRSC id": "DRSC20382", "replicate 1, z-score of dpERK with insulin": 0.48, "replicate 2, z-score of dpERK with insulin": -0.84}
